Assay results published in PMC11746084.
These are yes or no findings as the source states them, for the method shown. Binding seen in cells or lysates may run through a third protein. Some binding calls cover weakened binding; strength is not graded here. Values belong to the molecule of their own block, whether it stands above or below them.

Sequences of proteins named here, by UniProt entry; tags and fusion partners are left off.
UniProt P63096: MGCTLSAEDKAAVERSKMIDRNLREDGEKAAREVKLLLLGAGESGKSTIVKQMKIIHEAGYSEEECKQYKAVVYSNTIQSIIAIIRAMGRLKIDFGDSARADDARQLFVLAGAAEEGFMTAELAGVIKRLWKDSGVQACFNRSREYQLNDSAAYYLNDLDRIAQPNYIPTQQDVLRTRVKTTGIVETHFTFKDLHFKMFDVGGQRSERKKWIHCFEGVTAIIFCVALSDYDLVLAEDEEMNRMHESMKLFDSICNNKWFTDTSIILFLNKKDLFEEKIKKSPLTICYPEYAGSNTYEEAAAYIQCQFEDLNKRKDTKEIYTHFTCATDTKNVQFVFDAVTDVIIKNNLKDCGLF
UniProt Q9DC51: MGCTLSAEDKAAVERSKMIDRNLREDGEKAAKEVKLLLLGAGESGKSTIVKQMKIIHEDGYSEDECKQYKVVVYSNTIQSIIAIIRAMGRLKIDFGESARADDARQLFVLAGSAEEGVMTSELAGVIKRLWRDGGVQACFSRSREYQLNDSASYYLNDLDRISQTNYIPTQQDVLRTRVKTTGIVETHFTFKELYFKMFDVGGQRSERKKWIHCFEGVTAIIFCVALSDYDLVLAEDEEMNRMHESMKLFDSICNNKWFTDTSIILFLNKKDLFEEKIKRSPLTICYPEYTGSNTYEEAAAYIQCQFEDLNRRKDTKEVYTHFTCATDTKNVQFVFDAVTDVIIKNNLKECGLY
UniProt B2RSH2: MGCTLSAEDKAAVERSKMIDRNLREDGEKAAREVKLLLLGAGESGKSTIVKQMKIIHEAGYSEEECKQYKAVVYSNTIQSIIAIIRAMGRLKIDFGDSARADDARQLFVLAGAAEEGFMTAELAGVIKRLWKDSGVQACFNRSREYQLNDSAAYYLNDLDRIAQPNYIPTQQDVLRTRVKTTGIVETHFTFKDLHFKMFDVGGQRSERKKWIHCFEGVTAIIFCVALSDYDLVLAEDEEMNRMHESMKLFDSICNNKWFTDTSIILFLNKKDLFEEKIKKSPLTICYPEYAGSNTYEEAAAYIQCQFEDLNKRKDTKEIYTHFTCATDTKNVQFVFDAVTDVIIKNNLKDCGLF
UniProt P08754: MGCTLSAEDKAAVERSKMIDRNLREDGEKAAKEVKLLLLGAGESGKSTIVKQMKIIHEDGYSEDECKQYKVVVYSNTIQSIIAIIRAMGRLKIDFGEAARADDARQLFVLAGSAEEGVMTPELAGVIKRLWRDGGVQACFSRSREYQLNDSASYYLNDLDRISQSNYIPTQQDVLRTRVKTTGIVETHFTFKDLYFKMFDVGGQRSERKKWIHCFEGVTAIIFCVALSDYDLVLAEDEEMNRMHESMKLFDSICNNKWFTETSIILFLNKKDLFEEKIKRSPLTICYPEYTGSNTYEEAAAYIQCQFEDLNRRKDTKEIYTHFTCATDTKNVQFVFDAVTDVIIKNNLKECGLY

Assays:
[1] = molecular target: T1, IL-5Rα (human, endogenous in EoL-1 cells) (human (endogenous in EoL-1)) (UniProt Q01344); test: co-IP; EoL-1 cells treated with GM-CSF (50 ng/mL) and IL-5 (50 ng/mL) for 5 min; lysate, primary antibody overnight at 4°C, Agarose A/G beads, washed with PBS, western blotting
T1 sequence: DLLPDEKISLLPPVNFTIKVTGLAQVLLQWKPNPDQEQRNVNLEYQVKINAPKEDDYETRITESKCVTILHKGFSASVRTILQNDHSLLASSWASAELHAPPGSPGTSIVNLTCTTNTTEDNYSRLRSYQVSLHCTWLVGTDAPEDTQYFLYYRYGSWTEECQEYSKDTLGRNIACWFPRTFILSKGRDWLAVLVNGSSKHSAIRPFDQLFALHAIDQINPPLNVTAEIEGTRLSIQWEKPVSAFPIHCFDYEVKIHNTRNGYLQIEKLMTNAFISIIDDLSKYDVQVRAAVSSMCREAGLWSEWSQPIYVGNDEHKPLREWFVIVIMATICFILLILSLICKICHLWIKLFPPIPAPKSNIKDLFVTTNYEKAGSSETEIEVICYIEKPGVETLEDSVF

[2] = molecular target: T2, IL-5Rα (mouse, endogenous in MEFs) (mouse (endogenous in MEFs)) (UniProt P21183); test: co-IP; WT and Gαi1/3 DKO MEFs treated with IL-5 (25 ng/mL) for 5 min; lysate, primary antibody overnight at 4°C, Agarose A/G beads, washed with PBS, western blotting
T2 sequence: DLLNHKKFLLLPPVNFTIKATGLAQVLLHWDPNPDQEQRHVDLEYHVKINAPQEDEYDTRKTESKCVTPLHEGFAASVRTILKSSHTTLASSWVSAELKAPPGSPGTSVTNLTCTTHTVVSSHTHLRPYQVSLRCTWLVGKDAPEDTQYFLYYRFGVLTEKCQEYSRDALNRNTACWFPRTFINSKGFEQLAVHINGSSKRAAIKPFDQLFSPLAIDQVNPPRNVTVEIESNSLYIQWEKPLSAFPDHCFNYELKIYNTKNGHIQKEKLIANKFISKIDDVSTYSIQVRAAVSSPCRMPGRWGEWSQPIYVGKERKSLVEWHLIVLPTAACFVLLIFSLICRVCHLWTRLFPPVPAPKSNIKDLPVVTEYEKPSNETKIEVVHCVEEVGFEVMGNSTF

Molecule: Gαi1 (human, endogenous in EoL-1 cells) (from UniProt P63096 1-354)
- binding [1]: binds

Molecule: Gαi3 (mouse, endogenous in MEFs) (from UniProt Q9DC51 1-354)
- binding [2]: binds

The next lines start with the values.

- binding [2]: binds
Molecule: Gαi1 (mouse, endogenous in MEFs) (from UniProt B2RSH2 1-354)

- binding [1]: binds
Molecule: Gαi3 (human, endogenous in EoL-1 cells) (from UniProt P08754 1-354)

- binding [1]: binds
B1: Gab1 (human, endogenous in EoL-1 cells) (protein, UniProt Q13480 1-694)
chain: MSGGEVVCSGWLRKSPPEKKLKRYAWKRRWFVLRSGRLTGDPDVLEYYKNDHAKKPIRIIDLNLCQQVDAGLTFNKKEFENSYIFDINTIDRIFYLVADSEEEMNKWVRCICDICGFNPTEEDPVKPPGSSLQAPADLPLAINTAPPSTQADSSSATLPPPYQLINVPPHLETLGIQEDPQDYLLLINCQSKKPEPTRTHADSAKSTSSETDCNDNVPSHKNPASSQSKHGMNGFFQQQMIYDSPPSRAPSASVDSSLYNLPRSYSHDVLPKVSPSSTEADGELYVFNTPSGTSSVETQMRHVSISYDIPPTPGNTYQIPRTFPEGTLGQTSKLDTIPDIPPPRPPKPHPAHDRSPVETCSIPRTASDTDSSYCIPTAGMSPSRSNTISTVDLNKLRKDASSQDCYDIPRAFPSDRSSSLEGFHNHFKVKNVLTVGSVSSEELDENYVPMNPNSPPRQHSSSFTEPIQEANYVPMTPGTFDFSSFGMQVPPPAHMGFRSSPKTPPRRPVPVADCEPPPVDRNLKPDRKVKPAPLEIKPLPEWEELQAPVRSPITRSFARDSSRFPMSPRPDSVHSTTSSSDSHDSEENYVPMNPNLSSEDPNLFGSNSLDGGSSPMIKPKGDKQVEYLDLDLDSGKSTPPRKQKSSGSGSSVADERVDYVVVDQQKTLALKSTREAWTDGRQSTESETPAKSVK
